Patent US20050137135A1 (priority 2002, published 2005)
These are yes or no findings as the source states them, for the method shown.

T1: rat pancreatic islet (wild type) GIP-receptor stably expressed on CHO-K1 cells (rat) (UniProt P43219)
T1 sequence (looked up): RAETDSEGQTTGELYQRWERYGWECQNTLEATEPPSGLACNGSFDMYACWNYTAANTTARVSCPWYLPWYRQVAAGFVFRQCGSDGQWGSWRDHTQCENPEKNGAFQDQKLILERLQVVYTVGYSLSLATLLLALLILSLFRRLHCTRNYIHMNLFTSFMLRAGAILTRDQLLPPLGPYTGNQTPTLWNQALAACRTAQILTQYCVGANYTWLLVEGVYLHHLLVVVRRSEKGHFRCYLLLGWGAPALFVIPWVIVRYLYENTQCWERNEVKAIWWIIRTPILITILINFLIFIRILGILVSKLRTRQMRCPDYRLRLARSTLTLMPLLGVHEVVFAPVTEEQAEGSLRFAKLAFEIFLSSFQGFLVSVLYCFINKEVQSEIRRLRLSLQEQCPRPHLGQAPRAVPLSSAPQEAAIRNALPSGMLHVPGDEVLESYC


Molecular target: T1, rat pancreatic islet (wild type) GIP-receptor stably expressed on CHO-K1 cells (rat)
Test: displacement of 125I-GIP from intact wtGIPR cells (FIG. 9)

binding | Binder
no binding (tested: 50 micromolar) | YAEGAFISDYSIAM [GIP1-14 peptide with alanine at position 5 (alanine scan, formula 4d)]
no binding (tested: 50 micromolar) | YAAGTFISDYSIAM [GIP1-14 peptide with alanine at position 3 (alanine scan, formula 4b)]
